We go through 38 targets from the supplement of paper PMC10849652.

The chains behind the UniProt entries cited, without tags or fusion partners. Where a name states a change or a piece, a line headed by the entry shows the natural chain unless it says otherwise.
UniProt Q8IXM6: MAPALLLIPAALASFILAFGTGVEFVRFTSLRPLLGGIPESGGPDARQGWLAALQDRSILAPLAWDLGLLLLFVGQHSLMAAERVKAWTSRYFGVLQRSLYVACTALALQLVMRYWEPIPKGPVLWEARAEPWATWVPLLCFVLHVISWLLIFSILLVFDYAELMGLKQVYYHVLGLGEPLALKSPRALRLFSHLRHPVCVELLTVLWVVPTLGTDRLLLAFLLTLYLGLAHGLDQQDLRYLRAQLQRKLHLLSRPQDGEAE
UniProt Q8IVI9: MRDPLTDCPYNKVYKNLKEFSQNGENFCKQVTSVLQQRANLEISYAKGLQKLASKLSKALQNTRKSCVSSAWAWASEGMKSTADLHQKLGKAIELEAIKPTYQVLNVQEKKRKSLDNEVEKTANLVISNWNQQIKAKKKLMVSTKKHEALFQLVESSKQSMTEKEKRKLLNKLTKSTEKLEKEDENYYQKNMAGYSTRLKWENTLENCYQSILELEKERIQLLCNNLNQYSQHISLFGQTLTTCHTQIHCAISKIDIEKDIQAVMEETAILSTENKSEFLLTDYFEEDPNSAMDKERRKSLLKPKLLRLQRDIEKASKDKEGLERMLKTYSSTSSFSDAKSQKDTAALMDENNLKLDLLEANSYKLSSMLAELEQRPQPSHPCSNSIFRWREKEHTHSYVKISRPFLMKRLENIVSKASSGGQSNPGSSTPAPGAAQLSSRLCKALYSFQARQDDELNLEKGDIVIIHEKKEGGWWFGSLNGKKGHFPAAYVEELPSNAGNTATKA
UniProt Q13287: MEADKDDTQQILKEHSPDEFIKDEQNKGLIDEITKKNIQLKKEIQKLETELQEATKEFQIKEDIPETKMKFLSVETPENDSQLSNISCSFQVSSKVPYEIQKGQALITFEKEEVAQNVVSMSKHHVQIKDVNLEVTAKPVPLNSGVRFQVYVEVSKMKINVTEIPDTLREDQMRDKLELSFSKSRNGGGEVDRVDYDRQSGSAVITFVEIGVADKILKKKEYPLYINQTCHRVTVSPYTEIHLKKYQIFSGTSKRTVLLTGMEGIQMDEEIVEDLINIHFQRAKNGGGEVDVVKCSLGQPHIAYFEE
UniProt P06748, whole entry, looked up: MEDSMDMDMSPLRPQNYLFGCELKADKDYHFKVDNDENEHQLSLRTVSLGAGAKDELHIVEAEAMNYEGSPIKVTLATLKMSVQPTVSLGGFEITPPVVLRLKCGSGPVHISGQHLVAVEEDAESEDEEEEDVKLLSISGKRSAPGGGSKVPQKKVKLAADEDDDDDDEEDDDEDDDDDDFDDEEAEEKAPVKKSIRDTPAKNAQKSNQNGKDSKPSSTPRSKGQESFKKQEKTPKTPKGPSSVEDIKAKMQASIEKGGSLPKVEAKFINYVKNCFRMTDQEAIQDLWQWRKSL
UniProt P16083: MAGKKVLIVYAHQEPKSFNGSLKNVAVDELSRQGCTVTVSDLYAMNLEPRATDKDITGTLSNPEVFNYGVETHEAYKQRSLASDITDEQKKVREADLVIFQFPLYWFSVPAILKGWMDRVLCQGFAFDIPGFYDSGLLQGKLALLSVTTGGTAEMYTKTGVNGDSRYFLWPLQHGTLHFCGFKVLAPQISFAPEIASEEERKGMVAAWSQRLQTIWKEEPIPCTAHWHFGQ
UniProt P24468: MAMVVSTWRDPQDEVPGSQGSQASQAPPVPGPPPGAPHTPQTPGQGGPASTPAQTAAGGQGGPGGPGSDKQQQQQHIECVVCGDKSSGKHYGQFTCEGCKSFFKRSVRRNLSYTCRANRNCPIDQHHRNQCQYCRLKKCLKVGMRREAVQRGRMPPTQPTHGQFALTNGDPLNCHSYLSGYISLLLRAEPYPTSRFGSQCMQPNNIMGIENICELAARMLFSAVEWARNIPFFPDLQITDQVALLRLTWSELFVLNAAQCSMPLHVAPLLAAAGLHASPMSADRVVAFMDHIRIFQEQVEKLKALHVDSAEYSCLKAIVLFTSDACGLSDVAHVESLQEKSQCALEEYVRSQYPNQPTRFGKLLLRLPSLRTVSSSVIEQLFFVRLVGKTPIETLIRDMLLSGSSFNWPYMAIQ
UniProt Q96TA1: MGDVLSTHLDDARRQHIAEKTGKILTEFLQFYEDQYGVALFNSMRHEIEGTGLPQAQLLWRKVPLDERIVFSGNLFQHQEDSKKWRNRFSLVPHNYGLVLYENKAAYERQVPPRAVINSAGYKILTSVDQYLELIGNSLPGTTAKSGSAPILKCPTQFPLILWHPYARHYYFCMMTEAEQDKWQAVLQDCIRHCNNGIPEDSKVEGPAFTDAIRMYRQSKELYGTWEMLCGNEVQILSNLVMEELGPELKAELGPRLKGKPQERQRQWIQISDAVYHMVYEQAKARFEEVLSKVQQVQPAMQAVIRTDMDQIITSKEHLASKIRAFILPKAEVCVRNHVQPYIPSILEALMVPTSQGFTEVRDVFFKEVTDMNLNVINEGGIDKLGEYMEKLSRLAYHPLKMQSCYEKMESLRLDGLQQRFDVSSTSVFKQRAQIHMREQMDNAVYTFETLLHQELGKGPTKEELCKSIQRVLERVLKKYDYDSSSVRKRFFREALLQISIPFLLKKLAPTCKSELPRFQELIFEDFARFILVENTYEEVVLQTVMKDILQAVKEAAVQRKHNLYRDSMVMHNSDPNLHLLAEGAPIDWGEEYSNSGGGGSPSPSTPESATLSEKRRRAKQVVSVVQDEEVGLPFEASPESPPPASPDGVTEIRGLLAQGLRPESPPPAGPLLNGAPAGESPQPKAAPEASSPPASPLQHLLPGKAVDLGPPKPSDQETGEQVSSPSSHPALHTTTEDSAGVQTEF
UniProt P04150: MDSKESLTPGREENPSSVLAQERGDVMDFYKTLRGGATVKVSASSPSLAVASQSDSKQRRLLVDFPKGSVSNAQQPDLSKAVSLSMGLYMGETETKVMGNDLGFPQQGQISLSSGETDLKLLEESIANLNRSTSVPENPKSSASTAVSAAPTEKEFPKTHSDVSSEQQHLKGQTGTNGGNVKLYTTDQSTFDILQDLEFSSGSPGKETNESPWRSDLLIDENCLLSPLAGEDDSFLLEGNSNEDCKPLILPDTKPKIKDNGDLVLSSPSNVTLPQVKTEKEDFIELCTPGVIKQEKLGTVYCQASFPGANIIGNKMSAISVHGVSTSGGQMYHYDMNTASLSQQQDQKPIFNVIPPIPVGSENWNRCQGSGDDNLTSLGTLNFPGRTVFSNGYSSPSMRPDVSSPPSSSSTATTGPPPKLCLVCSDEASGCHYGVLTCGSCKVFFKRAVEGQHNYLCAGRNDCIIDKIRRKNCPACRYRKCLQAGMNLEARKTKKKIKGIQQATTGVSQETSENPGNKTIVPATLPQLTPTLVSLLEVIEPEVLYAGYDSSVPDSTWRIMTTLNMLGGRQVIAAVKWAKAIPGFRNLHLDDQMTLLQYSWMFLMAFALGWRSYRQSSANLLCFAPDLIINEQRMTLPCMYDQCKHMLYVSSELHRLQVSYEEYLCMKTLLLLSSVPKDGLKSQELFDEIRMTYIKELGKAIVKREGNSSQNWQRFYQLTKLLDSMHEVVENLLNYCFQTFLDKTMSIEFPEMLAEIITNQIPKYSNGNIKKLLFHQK
UniProt P48681: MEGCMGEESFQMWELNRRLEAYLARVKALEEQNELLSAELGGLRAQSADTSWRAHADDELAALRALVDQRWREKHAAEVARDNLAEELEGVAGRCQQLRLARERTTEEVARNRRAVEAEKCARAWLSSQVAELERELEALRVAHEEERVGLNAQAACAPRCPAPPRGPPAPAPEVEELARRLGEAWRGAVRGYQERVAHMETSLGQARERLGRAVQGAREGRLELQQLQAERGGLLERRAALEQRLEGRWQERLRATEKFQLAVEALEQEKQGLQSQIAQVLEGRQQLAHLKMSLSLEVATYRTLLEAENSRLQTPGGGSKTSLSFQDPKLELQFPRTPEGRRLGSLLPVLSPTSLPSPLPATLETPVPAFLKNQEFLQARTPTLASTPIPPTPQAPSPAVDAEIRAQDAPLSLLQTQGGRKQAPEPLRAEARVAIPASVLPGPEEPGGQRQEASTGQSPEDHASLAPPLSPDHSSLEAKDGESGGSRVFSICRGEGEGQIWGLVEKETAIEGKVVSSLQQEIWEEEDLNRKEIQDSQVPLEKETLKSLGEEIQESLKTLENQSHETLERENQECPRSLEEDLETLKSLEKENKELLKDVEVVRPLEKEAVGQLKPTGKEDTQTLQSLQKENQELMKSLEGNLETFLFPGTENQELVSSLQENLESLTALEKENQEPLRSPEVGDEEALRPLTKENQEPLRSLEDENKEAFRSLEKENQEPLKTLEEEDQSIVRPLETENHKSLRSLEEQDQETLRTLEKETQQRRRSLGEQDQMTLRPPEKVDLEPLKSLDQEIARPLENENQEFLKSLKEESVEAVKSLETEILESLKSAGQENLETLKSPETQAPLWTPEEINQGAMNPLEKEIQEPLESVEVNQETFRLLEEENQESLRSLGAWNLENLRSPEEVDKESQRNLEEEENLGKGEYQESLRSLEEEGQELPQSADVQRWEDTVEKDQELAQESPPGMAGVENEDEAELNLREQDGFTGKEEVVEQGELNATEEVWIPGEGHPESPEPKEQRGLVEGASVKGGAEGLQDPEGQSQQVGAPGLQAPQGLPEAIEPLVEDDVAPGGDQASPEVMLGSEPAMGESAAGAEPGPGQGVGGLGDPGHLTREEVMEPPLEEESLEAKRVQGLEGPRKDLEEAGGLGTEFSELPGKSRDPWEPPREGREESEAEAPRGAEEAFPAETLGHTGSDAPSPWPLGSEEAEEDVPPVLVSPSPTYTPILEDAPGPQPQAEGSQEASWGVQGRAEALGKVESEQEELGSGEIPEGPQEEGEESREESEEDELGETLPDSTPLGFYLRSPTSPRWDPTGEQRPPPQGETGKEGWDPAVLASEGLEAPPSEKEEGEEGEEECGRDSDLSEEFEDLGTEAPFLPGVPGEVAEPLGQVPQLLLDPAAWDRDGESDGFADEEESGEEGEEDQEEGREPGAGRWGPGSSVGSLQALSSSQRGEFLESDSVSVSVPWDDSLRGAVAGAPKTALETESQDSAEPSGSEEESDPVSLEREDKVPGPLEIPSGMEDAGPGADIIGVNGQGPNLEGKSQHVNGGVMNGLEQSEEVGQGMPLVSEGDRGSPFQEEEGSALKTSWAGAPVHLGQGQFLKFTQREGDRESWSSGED
UniProt P19838: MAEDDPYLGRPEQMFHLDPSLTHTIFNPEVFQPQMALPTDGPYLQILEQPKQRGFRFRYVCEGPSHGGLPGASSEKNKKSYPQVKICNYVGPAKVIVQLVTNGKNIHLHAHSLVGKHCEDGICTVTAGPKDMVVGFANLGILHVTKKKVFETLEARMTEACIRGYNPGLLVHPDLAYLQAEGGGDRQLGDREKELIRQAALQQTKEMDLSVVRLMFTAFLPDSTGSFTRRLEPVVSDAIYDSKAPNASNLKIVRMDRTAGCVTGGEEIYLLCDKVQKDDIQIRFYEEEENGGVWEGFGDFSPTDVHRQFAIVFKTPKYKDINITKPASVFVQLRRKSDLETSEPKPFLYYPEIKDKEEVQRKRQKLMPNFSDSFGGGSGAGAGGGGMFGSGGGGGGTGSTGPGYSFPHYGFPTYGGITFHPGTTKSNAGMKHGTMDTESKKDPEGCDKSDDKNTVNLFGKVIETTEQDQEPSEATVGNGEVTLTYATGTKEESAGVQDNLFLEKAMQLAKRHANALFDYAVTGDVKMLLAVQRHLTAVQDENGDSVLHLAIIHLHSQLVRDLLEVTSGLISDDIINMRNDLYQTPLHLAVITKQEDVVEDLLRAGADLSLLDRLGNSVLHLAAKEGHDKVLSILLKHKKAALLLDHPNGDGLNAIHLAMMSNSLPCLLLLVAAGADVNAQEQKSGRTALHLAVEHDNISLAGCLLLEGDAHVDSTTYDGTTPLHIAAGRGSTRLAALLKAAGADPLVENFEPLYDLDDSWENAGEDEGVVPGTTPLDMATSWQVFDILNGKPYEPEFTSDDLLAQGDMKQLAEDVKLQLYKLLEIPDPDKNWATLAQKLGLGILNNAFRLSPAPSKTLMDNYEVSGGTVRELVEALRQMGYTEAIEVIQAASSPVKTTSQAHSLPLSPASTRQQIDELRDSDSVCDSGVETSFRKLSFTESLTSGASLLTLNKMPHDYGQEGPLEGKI
UniProt P23511, whole entry, looked up: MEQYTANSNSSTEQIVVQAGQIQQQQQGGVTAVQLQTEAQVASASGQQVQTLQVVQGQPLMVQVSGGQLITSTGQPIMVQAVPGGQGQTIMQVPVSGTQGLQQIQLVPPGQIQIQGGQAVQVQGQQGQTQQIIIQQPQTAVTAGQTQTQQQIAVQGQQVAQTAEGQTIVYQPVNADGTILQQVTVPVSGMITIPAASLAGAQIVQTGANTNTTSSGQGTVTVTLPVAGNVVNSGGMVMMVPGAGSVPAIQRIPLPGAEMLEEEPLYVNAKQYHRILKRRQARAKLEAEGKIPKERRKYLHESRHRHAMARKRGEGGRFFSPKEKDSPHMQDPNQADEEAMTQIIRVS

The other results are listed elsewhere or left out.

Compound in the experiment: c1cn2cc(-c3ccc4cn[nH]c4c3)nc(Nc3ccc(N4CCOCC4)cc3)c2n1 [entospletinib]
As to the kind of experiment: log2 fold change, soluble protein after heating vs DMSO (PISA); higher = thermal stabilisation; K562 cells, 10 uM, 30 min; active = over 0.2 and 3.5 SD of the protein, either way, in both replicates (recomputed). The method, boiled down:
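K562 cells at 2×10^6 cells/mL were given 10 μM compound for 30 min. Aliquots then went through 3 min of heating across 48°C-58°C, were pooled, and were extracted in PBS with 0.5% NP-40 at 4°C, and the supernatant after 21,000xg for 90 min was quantified by TMTpro 16plex LC-MS/MS with channel sums equalised. Thermal stability relative to control samples, from duplicates, is given as log2 fold change.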
Turning to NOD1 (UniProt Q9Y239), the log2 fold change was inactive: 0.116.
The result for NSFL1C isoform 5 (UniProt Q9UNZ2) reads inactive: -0.012; that for NFAT5 isoform 5 (UniProt O94916), inactive: -0.012; that for NEK9 (UniProt Q8TD19), inactive: 0.045.
For NRBF2 (UniProt Q96F24), the log2 fold change is inactive: -0.011.
The result for NME6 (UniProt O75414) reads inactive: -0.005.
In the case of NEO1 (UniProt Q92859) it was inactive: 0.555; in that of NIT1 (UniProt Q86X76), inactive: 0.013.
In the case of NONO (UniProt Q15233) it was inactive: 0.109; in that of NRM (UniProt Q8IXM6), inactive: -0.019.
With NOSTRIN isoform 4 (UniProt Q8IVI9), the log2 fold change was inactive: -0.061.
In the case of NMI (UniProt Q13287) it was inactive: -0.013.
In the case of NENF (UniProt Q9UMX5), the log2 fold change was inactive: 0.012.
The result for NFKBIB (UniProt Q15653) reads inactive: -0.009.
In the case of NFKB2 (UniProt Q00653), the log2 fold change is inactive: 0.056.
The result for NELFE isoform 3 (UniProt P18615) reads inactive: -0.035.
In the case of NHP2 (UniProt Q9NX24) it was inactive: -0.036.
As for NSD1 (UniProt Q96L73), the log2 fold change was inactive: -0.056.
The result for NPM1 (UniProt P06748) reads inactive: 0.133; that for NQO2 (UniProt P16083), inactive: 0.006.
The result for NR2F2 (UniProt P24468) reads inactive: -0.013.
The result for NPLOC4 isoform 2 (UniProt Q8TAT6) reads inactive: -0.019; that for NFKBIA (UniProt P25963), inactive: 0.015; that for NLN (UniProt Q9BYT8), inactive: -0.034.
Take NIBAN2 (UniProt Q96TA1): the log2 fold change is inactive: -0.015.
The result for NME2 isoform 2 (UniProt P22392) reads inactive: 0.01; that for NR3C1 isoform 3 (UniProt P04150), inactive: 0.22; that for NPL (UniProt Q9BXD5), inactive: -0.052.
With NME4 (UniProt O00746), the log2 fold change is inactive: -0.105.
Turning to NOC2L (UniProt Q9Y3T9), the log2 fold change is inactive: 0.
The result for NFIA isoform 4 (UniProt Q12857) reads inactive: 0.047; that for NES (UniProt P48681), inactive: 0.076; that for NIF3L1 (UniProt Q9GZT8), inactive: 0.039.
Regarding NFKB1 isoform 2 (UniProt P19838), the log2 fold change is inactive: 0.071.
In the case of NLE1 (UniProt Q9NVX2) it was inactive: -0.036; in that of NFYA (UniProt P23511), inactive: -0.036; in that of NFS1 (UniProt Q9Y697), inactive: -0.029.
In the case of NOMO2 (UniProt Q5JPE7) it was inactive: -0.023.
